Laboratory results: patent publication US11707440B2 (priority 2017, dated 2023)

Conditions: 25 μL sample volume
Excerpt: This example provides an LC-MS/MS method for the determination of ketamine and norketamine in sodium heparin human plasma using ketamine-d4 and norketamine-d4 as the respective internal standards (IS).

Row | SMILES | Lower limit of quantitation (LLOQ) [ng/mL]
1 | CNC1(c2ccccc2Cl)CCCCC1=O (racemic) [ketamine, reference compound] | 0.500
2 | NC1(c2ccccc2Cl)CCCCC1=O (centres unmarked) [Norketamine] | 0.500
